Compound in the assay: Nc1ncnc2c1ncn2[C@@H]1O[C@H](COP(=O)(O)OP(=O)(O)NP(=O)(O)O)[C@@H](O)[C@H]1O [adenylyl imidodiphosphate]
Description: NP40-soluble protein abundance relative to vehicle (solubility fold change) (ratio); higher = more soluble protein in presence of AMP-PNP. An outline of the steps:
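Crude Jurkat lysate, prepared by Dounce homogenisation, was exposed to eight concentrations from 0.1 to 10 mM for 10 min at room temperature and then 3 min at 37 °C. Solubilisation used 0.8% NP40 with benzonase for 60 min at 4 °C, followed by ultracentrifugation and TMT labelling of the supernatant for LC-MS/MS. After vsn normalisation of intensities, each value is the fold change against the detergent-processed vehicle within each replicate, across three independent experiments.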

Protein sequences, listed by entry. Tags and fused reporters are not part of them. Lines headed by an entry give the natural chain unless they say otherwise; changes in a name come on top.
UniProt Q9Y664: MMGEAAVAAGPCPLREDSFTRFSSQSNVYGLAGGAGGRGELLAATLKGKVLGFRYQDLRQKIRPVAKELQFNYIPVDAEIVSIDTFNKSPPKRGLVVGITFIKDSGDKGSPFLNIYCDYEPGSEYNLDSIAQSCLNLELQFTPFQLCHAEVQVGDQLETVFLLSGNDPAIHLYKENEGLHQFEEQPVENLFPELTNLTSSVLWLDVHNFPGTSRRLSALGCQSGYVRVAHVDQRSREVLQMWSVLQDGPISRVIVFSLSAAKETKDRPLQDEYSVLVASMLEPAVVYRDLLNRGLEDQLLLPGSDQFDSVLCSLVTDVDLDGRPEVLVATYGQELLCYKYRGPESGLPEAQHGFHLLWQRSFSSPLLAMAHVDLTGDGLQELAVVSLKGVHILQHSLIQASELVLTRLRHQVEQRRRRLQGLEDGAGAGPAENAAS
UniProt Q9Y3Q3: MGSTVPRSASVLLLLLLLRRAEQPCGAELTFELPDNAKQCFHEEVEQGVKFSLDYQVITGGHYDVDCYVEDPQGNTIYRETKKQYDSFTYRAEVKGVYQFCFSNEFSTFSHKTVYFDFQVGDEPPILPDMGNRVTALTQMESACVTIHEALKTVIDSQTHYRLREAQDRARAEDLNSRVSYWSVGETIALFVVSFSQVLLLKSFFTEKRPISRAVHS
UniProt Q9Y5J7: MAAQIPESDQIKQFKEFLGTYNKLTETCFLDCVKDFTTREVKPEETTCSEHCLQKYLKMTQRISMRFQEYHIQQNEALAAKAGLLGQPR
UniProt Q9Y657, whole entry: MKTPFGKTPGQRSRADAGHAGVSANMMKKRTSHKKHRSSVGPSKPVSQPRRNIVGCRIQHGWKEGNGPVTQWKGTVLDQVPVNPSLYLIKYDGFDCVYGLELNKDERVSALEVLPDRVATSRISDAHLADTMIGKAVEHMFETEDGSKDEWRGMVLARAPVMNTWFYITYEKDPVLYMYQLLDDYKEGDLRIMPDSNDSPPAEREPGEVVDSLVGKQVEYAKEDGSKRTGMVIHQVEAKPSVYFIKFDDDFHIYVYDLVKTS
UniProt Q9UBI1, whole entry: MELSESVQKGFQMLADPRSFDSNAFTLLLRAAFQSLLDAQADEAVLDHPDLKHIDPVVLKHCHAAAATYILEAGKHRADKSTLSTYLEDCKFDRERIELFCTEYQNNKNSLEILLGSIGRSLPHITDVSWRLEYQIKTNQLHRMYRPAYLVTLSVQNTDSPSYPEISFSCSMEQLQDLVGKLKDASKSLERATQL
UniProt Q9Y5Q8: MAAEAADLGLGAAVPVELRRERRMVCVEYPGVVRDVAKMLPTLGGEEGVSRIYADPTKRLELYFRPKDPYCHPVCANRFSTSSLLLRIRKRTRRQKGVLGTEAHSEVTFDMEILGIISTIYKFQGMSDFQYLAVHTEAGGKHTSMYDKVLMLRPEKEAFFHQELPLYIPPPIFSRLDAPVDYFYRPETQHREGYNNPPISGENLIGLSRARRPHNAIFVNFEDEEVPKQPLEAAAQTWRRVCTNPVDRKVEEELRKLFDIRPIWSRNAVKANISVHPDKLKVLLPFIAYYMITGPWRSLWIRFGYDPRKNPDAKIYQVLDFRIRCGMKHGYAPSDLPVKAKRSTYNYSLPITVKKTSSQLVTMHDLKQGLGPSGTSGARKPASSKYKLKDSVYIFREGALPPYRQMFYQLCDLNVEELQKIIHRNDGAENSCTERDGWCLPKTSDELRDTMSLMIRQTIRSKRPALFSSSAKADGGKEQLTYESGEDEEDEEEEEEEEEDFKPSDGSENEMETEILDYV
UniProt Q9Y6D9: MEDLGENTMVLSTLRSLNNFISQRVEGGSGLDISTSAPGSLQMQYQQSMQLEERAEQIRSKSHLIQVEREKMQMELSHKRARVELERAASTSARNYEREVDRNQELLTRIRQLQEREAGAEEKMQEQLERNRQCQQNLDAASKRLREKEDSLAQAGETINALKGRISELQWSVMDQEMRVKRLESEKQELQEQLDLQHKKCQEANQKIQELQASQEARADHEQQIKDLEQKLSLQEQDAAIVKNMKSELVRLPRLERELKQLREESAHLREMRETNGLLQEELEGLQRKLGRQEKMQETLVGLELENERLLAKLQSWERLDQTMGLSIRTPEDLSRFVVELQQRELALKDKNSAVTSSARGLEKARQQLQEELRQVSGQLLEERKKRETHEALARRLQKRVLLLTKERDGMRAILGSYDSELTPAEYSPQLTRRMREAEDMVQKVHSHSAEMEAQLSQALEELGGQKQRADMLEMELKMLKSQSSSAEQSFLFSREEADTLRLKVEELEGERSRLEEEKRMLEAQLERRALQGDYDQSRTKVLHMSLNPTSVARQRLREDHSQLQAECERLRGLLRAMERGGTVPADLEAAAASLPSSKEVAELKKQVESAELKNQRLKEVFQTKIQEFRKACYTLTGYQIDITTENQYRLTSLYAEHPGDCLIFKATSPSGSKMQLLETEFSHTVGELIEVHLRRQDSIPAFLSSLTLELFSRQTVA
UniProt Q9Y3E2: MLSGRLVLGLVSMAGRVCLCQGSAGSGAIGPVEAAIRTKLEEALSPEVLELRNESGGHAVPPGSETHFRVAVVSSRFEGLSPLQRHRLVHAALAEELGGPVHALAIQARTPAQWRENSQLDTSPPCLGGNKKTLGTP
UniProt Q9Y6X8: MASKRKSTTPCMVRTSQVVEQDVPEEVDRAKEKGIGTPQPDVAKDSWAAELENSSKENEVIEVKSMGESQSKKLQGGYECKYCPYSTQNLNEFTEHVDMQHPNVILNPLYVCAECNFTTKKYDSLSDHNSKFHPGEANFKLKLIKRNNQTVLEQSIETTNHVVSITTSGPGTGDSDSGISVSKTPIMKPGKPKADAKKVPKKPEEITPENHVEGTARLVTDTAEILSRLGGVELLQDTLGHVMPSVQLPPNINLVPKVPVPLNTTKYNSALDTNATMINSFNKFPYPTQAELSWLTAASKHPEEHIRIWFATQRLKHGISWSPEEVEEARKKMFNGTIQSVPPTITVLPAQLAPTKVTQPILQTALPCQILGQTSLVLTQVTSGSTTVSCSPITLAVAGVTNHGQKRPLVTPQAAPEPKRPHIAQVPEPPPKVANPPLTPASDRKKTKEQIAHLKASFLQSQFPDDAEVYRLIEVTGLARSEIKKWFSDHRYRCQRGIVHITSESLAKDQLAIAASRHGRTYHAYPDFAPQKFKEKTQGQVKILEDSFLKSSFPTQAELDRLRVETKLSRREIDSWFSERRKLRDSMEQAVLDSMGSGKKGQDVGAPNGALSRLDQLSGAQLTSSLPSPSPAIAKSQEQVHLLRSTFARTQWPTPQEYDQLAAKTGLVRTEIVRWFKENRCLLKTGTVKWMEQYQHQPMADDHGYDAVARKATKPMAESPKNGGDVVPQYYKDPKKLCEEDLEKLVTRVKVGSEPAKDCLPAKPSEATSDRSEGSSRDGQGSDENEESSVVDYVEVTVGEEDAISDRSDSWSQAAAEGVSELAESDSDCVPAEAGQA
UniProt Q9Y5Z7: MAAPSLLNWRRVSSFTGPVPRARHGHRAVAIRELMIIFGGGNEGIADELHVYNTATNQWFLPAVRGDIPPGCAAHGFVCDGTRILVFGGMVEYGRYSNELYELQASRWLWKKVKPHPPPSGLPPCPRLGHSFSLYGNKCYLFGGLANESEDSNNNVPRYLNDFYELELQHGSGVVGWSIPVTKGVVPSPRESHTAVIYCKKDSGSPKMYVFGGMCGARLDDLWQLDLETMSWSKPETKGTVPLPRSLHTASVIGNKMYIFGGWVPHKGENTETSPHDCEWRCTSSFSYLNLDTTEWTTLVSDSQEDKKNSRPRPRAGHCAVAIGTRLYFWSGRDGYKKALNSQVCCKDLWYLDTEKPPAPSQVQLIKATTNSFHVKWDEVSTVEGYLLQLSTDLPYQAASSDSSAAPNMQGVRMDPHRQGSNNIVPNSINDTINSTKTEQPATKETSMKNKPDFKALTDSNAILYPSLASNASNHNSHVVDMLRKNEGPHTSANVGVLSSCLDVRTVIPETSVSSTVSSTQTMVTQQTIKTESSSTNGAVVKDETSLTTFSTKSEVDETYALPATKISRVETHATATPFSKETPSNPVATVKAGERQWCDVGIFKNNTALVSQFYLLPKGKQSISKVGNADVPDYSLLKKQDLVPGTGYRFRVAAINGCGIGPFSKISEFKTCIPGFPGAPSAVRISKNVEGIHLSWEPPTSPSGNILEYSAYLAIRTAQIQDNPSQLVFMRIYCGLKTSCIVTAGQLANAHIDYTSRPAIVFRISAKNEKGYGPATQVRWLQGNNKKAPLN
UniProt Q9Y3V2: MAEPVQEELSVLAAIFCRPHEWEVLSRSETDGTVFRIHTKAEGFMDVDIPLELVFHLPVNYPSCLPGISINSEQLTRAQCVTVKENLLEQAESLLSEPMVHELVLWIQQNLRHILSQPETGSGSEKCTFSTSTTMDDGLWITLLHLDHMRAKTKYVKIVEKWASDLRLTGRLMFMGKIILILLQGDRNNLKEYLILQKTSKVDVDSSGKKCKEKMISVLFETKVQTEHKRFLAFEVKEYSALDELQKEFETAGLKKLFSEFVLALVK
UniProt Q9Y4K3: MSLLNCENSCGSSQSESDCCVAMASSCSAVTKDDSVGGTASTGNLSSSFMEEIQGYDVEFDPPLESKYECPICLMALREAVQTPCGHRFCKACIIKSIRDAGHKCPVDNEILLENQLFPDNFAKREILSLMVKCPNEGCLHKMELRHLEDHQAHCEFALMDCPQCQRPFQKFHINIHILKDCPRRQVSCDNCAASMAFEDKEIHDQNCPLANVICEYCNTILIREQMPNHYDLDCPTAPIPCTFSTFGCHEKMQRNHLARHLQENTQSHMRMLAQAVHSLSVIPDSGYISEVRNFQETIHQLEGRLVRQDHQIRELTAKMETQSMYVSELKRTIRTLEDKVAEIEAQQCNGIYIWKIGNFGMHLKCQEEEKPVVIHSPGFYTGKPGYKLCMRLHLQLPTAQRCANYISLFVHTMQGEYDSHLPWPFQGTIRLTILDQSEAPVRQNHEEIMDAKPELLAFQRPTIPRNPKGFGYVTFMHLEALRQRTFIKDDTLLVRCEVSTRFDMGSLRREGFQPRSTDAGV
UniProt Q9Y4X5: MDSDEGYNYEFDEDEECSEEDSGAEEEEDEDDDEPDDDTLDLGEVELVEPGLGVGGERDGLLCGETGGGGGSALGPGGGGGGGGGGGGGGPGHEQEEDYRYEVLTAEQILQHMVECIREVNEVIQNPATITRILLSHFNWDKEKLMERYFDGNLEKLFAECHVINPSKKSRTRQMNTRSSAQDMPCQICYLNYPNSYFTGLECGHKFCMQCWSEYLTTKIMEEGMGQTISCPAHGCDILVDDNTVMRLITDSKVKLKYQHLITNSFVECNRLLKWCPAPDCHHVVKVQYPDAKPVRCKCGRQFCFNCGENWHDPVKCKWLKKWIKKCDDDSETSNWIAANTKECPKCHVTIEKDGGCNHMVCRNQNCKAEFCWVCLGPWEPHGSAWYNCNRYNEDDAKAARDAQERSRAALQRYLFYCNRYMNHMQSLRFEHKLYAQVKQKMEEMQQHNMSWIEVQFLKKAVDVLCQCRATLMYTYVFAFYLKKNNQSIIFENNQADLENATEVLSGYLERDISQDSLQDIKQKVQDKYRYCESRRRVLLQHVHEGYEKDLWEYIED
UniProt Q9Y6Y8: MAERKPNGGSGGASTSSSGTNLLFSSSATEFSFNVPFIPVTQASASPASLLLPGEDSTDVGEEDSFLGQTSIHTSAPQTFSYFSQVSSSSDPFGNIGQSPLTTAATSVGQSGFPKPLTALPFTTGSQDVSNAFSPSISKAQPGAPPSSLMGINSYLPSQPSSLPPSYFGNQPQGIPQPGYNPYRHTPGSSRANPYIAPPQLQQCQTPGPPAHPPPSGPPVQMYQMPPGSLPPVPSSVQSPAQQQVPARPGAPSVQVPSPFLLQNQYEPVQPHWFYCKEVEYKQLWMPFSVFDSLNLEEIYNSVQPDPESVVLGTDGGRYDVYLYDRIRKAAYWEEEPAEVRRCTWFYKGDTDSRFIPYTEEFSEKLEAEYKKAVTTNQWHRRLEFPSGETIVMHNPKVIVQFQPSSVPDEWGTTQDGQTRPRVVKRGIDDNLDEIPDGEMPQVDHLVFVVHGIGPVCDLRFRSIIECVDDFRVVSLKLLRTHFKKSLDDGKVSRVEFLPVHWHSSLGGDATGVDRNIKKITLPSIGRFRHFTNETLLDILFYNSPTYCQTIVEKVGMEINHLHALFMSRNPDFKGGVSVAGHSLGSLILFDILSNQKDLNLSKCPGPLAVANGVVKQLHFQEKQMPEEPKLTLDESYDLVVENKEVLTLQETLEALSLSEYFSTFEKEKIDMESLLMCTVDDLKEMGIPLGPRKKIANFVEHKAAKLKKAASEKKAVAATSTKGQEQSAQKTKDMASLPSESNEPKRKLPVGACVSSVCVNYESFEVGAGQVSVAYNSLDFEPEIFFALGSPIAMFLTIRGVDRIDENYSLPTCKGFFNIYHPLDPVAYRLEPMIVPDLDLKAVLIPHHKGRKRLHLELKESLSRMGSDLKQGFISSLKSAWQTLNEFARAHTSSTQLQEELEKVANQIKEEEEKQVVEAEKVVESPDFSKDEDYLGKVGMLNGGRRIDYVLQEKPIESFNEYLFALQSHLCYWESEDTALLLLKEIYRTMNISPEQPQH

± gives the standard deviation of the averaged measurements. The entries are a selection whose mix differs from that of the whole data set. Most entries show no effect beyond the scatter of the controls.

In the case of KPTN (UniProt Q9Y664), the NP40-soluble protein abundance is 0.994 ± 0.027 (concentration: 0.1mM) and 0.987 ± 0.057 (concentration: 0.5mM).

With DNMT3A (UniProt Q9Y6K1), the NP40-soluble protein abundance is 0.986 ± 0.038 (concentration: 0.1mM) and 0.977 ± 0.038 (concentration: 0.5mM).

As to SNX8 (UniProt Q9Y5X2), the NP40-soluble protein abundance by setting is: (concentration: 0.1mM) 1.02 ± 0.018; (concentration: 0.5mM) 0.995 ± 0.051.

In the case of MRPS18B (UniProt Q9Y676), the NP40-soluble protein abundance (concentration: 0.1mM) amounted to 0.977 ± 0.035 and the NP40-soluble protein abundance (concentration: 0.5mM) is 0.972 ± 0.025.

TMED3 (UniProt Q9Y3Q3): the NP40-soluble protein abundance is, setting by setting: (concentration: 0.1mM) 1.03 ± 0.025; (concentration: 0.5mM) 0.999 ± 0.07.

Regarding TELO2 (UniProt Q9Y4R8), the NP40-soluble protein abundance (concentration: 0.1mM) is 1.018 ± 0.007 and the NP40-soluble protein abundance (concentration: 0.5mM) came to 0.991 ± 0.057.

As to UniProt Q9Y5J7 and related entries, the NP40-soluble protein abundance is, setting by setting: (concentration: 0.1mM) 0.98 ± 0.068; (concentration: 0.5mM) 1.01 ± 0.042.

Turning to SPIN1 (UniProt Q9Y657), the NP40-soluble protein abundance (concentration: 0.1mM) amounted to 1.03 ± 0.03 and the NP40-soluble protein abundance (concentration: 0.5mM) was found to be 1.04 ± 0.065.

As for “R4GMX3 and related entries (UniProt Q9UBI1)”, the NP40-soluble protein abundance was 1.03 ± 0.018 (concentration: 0.1mM) and 0.963 ± 0.025 (concentration: 0.5mM).

In the case of UniProt Q9Y5Q8 and related entries, the NP40-soluble protein abundance (concentration: 0.1mM) turned out to be 1.01 ± 0.042 and the NP40-soluble protein abundance (concentration: 0.5mM) came to 0.956 ± 0.042.

Regarding UniProt Q9Y4E8 and related entries, the NP40-soluble protein abundance reads like this: (concentration: 0.1mM) 0.976 ± 0.02; (concentration: 0.5mM) 0.996 ± 0.038.

With MAD1L1 (UniProt Q9Y6D9), the NP40-soluble protein abundance amounted to 0.991 ± 0.024 (concentration: 0.1mM) and 1.01 ± 0.043 (concentration: 0.5mM).

With BOLA1 (UniProt Q9Y3E2), the NP40-soluble protein abundance runs as follows: (concentration: 0.1mM) 0.9936 ± 0.0088; (concentration: 0.5mM) 0.995 ± 0.027.

On to PSAT1 (UniProt Q9Y617), for which the NP40-soluble protein abundance (concentration: 0.1mM) is 1.02 ± 0.031 and the NP40-soluble protein abundance (concentration: 0.5mM) was 1.02 ± 0.057.

Regarding ZHX2 (UniProt Q9Y6X8), the NP40-soluble protein abundance was found to be 1.01 ± 0.023 (concentration: 0.1mM) and 1.007 ± 0.0036 (concentration: 0.5mM).

For the target UniProt Q9Y6I3 and related entries, the NP40-soluble protein abundance came out at 0.993 ± 0.029 (concentration: 0.1mM) and 0.983 ± 0.021 (concentration: 0.5mM).

Consider HCFC2 (UniProt Q9Y5Z7), for which the NP40-soluble protein abundance is, setting by setting: (concentration: 0.1mM) 0.967 ± 0.05; (concentration: 0.5mM) 0.976 ± 0.038.

On to UniProt Q9Y3V2 and related entries, for which the NP40-soluble protein abundance runs as follows: (concentration: 0.1mM) 1.02 ± 0.033; (concentration: 0.5mM) 0.998 ± 0.051.

In the case of TRAF6 (UniProt Q9Y4K3), the NP40-soluble protein abundance by setting is: (concentration: 0.1mM) 1.01 ± 0.013; (concentration: 0.5mM) 0.976 ± 0.016.

As to RNF114 (UniProt Q9Y508), the NP40-soluble protein abundance (concentration: 0.1mM) came out at 1.02 ± 0.017 and the NP40-soluble protein abundance (concentration: 0.5mM) worked out at 0.996 ± 0.015.

As to ARIH1 (UniProt Q9Y4X5), the NP40-soluble protein abundance is, setting by setting: (concentration: 0.1mM) 0.973 ± 0.029; (concentration: 0.5mM) 0.973 ± 0.036.

As to SEC23IP (UniProt Q9Y6Y8), the NP40-soluble protein abundance by setting is: (concentration: 0.1mM) 0.977 ± 0.041; (concentration: 0.5mM) 1.01 ± 0.03.

Values taken from the supplement of paper PMC6411743.
